In this experiment the target is T1, Strep-tagged Polyribonucleotide nucleotidyltransferase (Pnp, DVU0503) (Desulfovibrio vulgaris Hildenborough (strain JW801)) (UniProt Q72ER6).
T1 sequence: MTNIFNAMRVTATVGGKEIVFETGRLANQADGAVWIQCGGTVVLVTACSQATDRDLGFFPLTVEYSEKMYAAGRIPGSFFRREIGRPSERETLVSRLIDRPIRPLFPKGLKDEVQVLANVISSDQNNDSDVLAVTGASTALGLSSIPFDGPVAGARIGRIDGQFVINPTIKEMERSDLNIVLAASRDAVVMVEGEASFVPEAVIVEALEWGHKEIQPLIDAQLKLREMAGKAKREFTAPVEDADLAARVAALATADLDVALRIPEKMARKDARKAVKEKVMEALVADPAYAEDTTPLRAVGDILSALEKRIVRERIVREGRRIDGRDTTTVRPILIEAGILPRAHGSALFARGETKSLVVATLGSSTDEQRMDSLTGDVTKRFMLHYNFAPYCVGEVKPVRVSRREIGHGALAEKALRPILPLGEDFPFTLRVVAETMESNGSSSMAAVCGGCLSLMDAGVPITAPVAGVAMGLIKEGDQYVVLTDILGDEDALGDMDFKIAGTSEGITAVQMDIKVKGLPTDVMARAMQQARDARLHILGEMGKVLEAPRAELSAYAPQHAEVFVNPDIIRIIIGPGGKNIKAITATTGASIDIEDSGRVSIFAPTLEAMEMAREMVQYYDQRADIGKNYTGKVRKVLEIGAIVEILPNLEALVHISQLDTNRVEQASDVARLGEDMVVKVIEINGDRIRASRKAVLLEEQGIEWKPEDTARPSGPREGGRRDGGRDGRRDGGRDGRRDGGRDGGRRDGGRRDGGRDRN
The experiment in a line: affinity purification with mass spectrometry; chromosomally C-terminally Strep-tag II-tagged bait in D. vulgaris JW801 grown anaerobically in LS4D to late log phase; soluble lysate (60~70 mg protein) on a 1-ml Strep-Tactin Sepharose column, gravity flow, 4°C, Buffer W (100 mM Tris-HCl, 150 mM NaCl, 1 mM EDTA, pH 8), eluted with desthiobiotin; tryptic digest, LC-MS/MS; three biological replicates; untagged JW801 as no-bait control.

Results are given in words; binding and its absence hold for the method and conditions named. Binding seen in cells or lysates may run through a third protein. Here binding means that the protein was enriched with, or labelled near, the bait; the list need not be complete. A no says only that the protein was not detected with the bait. Sequences can lack the tags named with a protein.

B1: Eno (DVU0322) (enzyme, UniProt Q72F92 1-437)
chain: MSTIVSVWAREILDSRGNPTIEVEVSLESGHSGRAAVPSGASTGTREALELRDGDKGRYKGKGVEKAVDNVMGEIAEAVIGLDALRQVQLDNTLLDLDGTDNKERLGANAMLGVSLATARAASSFLGLPLYQYLGGVNAKVLPVPLMNIINGGAHAPNNLDIQEFMIMPIGAATFRDALRMGAETFHTLKALLAADGHVTSVGDEGGFAPNLKSHDEAFKYITRAIEESGYIPGAEIALAIDAAASEFYRDGKYHLAGEGKTFSNSEMTEWLGEFTAKYPLISIEDGLAEGDWEGWGELTYKLGDTVQLVGDDIFVTNPDILAQGIDEGVANSILIKLNQIGTLTETLDTIEMAKQAAYTTVISHRSGETEDHFIADLAVGLNAGQIKTGSLCRSDRLAKYNQLLRIEEDLDDAGIYFGPMIASHFGYEGDEEFEDA
Regarding B1, the binding entry was “no binding”.

The values are drawn from article PMC3125180.
